Laboratory results from paper PMC11540758.
Results are given in words; binding and its absence hold for the method and conditions named. Binding seen in cells or lysates may run through a third protein. Some results given as binding are weak or reduced against the parent protein; the word gives no strength. Where a sequence is shown, tags or fusion partners need not be part of it.

Biological target: T1, NPR4 (positive control of the luciferase complementation assay) (UniProt Q5ICL9)
T1 sequence: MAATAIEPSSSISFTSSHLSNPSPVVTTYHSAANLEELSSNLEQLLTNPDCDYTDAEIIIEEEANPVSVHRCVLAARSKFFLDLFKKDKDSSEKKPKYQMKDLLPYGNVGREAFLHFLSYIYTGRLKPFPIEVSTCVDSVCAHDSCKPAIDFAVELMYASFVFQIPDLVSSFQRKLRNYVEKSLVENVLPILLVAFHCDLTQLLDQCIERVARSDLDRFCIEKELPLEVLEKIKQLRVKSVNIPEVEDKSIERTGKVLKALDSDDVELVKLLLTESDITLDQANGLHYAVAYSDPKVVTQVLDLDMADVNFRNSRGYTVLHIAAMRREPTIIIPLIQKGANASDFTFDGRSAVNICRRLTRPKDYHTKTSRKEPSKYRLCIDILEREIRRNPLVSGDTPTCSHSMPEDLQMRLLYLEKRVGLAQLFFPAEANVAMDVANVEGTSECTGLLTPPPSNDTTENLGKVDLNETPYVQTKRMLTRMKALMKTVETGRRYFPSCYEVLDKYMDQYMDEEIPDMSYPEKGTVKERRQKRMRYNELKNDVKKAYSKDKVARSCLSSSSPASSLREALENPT
Assay: split reporter; split luciferase complementation assay (LCA) in N. benthamiana leaves, imaged 48 hours after agro-infiltration with luciferin

B1: NPR3 (positive control of the luciferase complementation assay) (protein, UniProt Q8L746 1-586)
chain: MATLTEPSSSLSFTSSHFSYGSIGSNHFSSSSASNPEVVSLTKLSSNLEQLLSNSDCDYSDAEIIVDGVPVGVHRCILAARSKFFQDLFKKEKKISKTEKPKYQLREMLPYGAVAHEAFLYFLSYIYTGRLKPFPLEVSTCVDPVCSHDCCRPAIDFVVQLMYASSVLQVPELVSSFQRRLCNFVEKTLVENVLPILMVAFNCKLTQLLDQCIERVARSDLYRFCIEKEVPPEVAEKIKQLRLISPQDEETSPKISEKLLERIGKILKALDSDDVELVKLLLTESDITLDQANGLHYSVVYSDPKVVAEILALDMGDVNYRNSRGYTVLHFAAMRREPSIIISLIDKGANASEFTSDGRSAVNILRRLTNPKDYHTKTAKGRESSKARLCIDILEREIRKNPMVLDTPMCSISMPEDLQMRLLYLEKRVGLAQLFFPTEAKVAMDIGNVEGTSEFTGLSPPSSGLTGNLSQVDLNETPHMQTQRLLTRMVALMKTVETGRRFFPYGSEVLDKYMAEYIDDDILDDFHFEKGSTHERRLKRMRYRELKDDVQKAYSKDKESKIARSCLSASSSPSSSSIRDDLHNTT
- binding: binds
